Laboratory results reported in PMC7140707.
No constants are given. Whether binding was seen depends on the method and setting. In cells and extracts the contact can be indirect. A yes stands for co-enrichment or nearness to the bait. Other partners may have been found. Tags and fused reporters may be left off the sequences shown.

B1: TMC1 (protein, UniProt Q08422 1-150)
chain: MSDINEIEIPSRKDEIRQVTPKDPMHEIEDKSTYHAKIKKSDSGTVLGAIPLNSRSSSNSSVTSTGQSSRRVTKKTTKKKKKNACYFDTCSSAASKFIGDCNFCKGHFCSKHRLMENHACNGLTSCKEQLHQRNADKLEAEQTKAPKIQI
B2: RPS18A (protein, UniProt P0CX55 1-146)
chain: MSLVVQEQGSFQHILRLLNTNVDGNIKIVYALTTIKGVGRRYSNLVCKKADVDLHKRAGELTQEELERIVQIMQNPTHYKIPAWFLNRQNDITDGKDYHTLANNVESKLRDDLERLKKIRAHRGIRHFWGLRVRGQHTKTTGRRRA
B3: BCK1 (protein, UniProt Q01389 1-1478)
chain: MPFLRKIAGTAHTHSRSDSNSSVKFGHQPTSSVASTKSSSKSPRATSRKSIYDDIRSQFPNLTPNSTSSQFYESTPVIEQSFNWTTDDHISAGTLENPTSFTNSSYKNDNGPSSLSDSRKSSGGNSVNSLSFDKLILSWDPTDPDEWTMHRVTSWFKFHDFPESWILFFKKHQLFGHRFIKLLAYDNFAVYEKYLPQTKTASYTRFQQLLKKTMTKNVTNSHIRQKSASKLKSSRSSSESIKSKLKNSKSQEDISNSRSTSESALSPTKSGPSKTDEKNFLHSTSTHQKTKSASSLYRRSFISLRGSSSSNASSAKSPSNIKLSIPARPHSIIESNSTLTKSASPPASPSYPSIFRRHHKSSSSESSLLNSLFGSGIGEEAPTKPNPQGHSLSSENLAKGKSKHYETNVSSPLKQSSLPTSDDKGNLWNKFKRKSQIGVPSPNTVAYVTSQETPSLKSNSSTATLTVQTADVNIPSPSSSPPPIPKTANRSLEVISTEDTPKISSTTASFKETYPDCINPDKTVPVPVNNQKYSVKNFLLDQKFYPLKKTGLNDSENKYILVTKDNVSFVPLNLKSVAKLSSFKESALTKLGINHKNVTFHMTDFDCDIGAAIPDDTLEFLKKSLFLNTSGKIYIKDQMKLQQKPKPAPLTSENNVPLKSVKSKSSMRSGTSSLIASTDDVSIVTSSSDITSFDEHASGSGRRYPQTPSYYYDRVSNTNPTEELNYWNIKEVLSHEENAPKMVFKTSPKLELNLPDKGSKLNIPTPITENESKSSFQVLRKDEGTEIDFNHRRESPYTKPELAPKREAPKPPANTSPQRTLSTSKQNKPIRLVRASTKISRSKRSKPLPPQLLSSPIEASSSSPDSLTSSYTPASTHVLIPQPYKGANDVMRRLKTDQDSTSTSPSLKMKQKVNRSNSTVSTSNSIFYSPSPLLKRGNSKRVVSSTSAADIFEENDITFADAPPMFDSDDSDDDSSSSDDIIWSKKKTAPETNNENKKDEKSDNSSTHSDEIFYDSQTQDKMERKMTFRPSPEVVYQNLEKFFPRANLDKPITEGIASPTSPKSLDSLLSPKNVASSRTEPSTPSRPVPPDSSYEFIQDGLNGKNKPLNQAKTPKRTKTIRTIAHEASLARKNSVKLKRQNTKMWGTRMVEVTENHMVSINKAKNSKGEYKEFAWMKGEMIGKGSFGAVYLCLNVTTGEMMAVKQVEVPKYSSQNEAILSTVEALRSEVSTLKDLDHLNIVQYLGFENKNNIYSLFLEYVAGGSVGSLIRMYGRFDEPLIKHLTTQVLKGLAYLHSKGILHRDMKADNLLLDQDGICKISDFGISRKSKDIYSNSDMTMRGTVFWMAPEMVDTKQGYSAKVDIWSLGCIVLEMFAGKRPWSNLEVVAAMFKIGKSKSAPPIPEDTLPLISQIGRNFLDACFEINPEKRPTANELLSHPFSEVNETFNFKSTRLAKFIKSNDKLNSSKLRITSQENKTE
B4: SIP1 (protein, UniProt P32578 1-815)
chain: MGNSPSTQDPSHSTKKEHGHHFHDAFNKDRQGSITSQLFNNRKSTHKRRASHTSEHNGAIPPRMQLLASHDPSTDCDGRMSSDTTIDKGPSHLFKKDYSLSSAADVNDTTLANLTLSDDHDVGAPEEQVKSPSFLSPGPSMATVKRTKSDLDDLSTLNYTMVDETTENERNDKPHHERHRSSIIALKKNLLESSATASPSPTRSSSVHSASLPALTKTDSIDIPVRQPYSKKPSIHAYQYQYLNNDETFSENSQMDKEGNSDSVDAEAGVLQSEDMVLNQSLLQNALKKDMQRLSRVNSSNSMYTAERISHANNNGNIENNTRNKGNAGGSNDDFTAPISATAKMMMKLYGDKTLMERDLNKHHNKTKKAQNKKIRSVSNSRRSSFASLHSLQSRKSILTNGLNLQPLHPLHPIINDNESQYSAPQHREISHHSNSMSSMSSISSTNSTENTLVVLKWKDDGTVAATTEVFIVSTDIASALKEQRELTLDENASLDSEKQLNPRIRMVYDDVHKEWFVPDLFLPAGIYRLQFSINGILTHSNFLPTATDSEGNFVNWFEVLPGYHTIEPFRNEADIDSQVEPTLDEELPKRPELKRFPSSSRKSSYYSAKGVERPSTPFSDYRGLSRSSSINMRDSFVRLKASSLDLMAEVKPERLVYSNEIPNLFNIGDGSTISVKGDSDDVHPQEPPSFTHRVVDCNQDDLFATLQQGGNIDAETAEAVFLSRYPVPDLPIYLNSSYLNRILNQSNQNSESHERDEGAINHIIPHVNLNHLLTSSIRDEIISVACTTRYEGKFITQVVYAPCYYKTQKSQISN
B5: SNX41 (protein, UniProt Q04053 1-625)
chain: MDYNIFEAVHEQQSSTSDMDLSEEDNNPFVGTHHLYASGIGTTIGEARPENENSPPSSSSLPSSPAHSSSAGSSRASTSSSTSSHAVVEADAETEPFVSLSMSTTATISKFTPHDMNGTQQIQIIDAGDFKDPWGKHAIGYVILYENNKIIRRYSEFHSLRQSLTRLLPTIIIPPIPSKHSLLKYIWSPINAANDSKIISTRKKMLNSFLSNCLNIQEISNDIVFQKFLNPEFNWKDVLSSSPIIILPLNNLLAPPLSPTKPSPLHSILPIPSNSSLRNYNSIWQQHITVKSHNEISNLPTEILQNESQFTHIENLFQNYKRIITHLLKNIRSNKSHFHSLSTYFAELGAYYNAFSLENDITMPNSLRESENNSNNPMMEIISHIEKTGHSFDVIYISSEILIEKYTSILEDPINELLQFLNESFKVLNFKKLKFLQFKILERLIIEKETKLSSLTEIENQLQKINESLTRSTILTDENYKDTKAADLTFVKKDVRSLSKSSSNSSSSGHQNEIHIGASKLNYKTSTPTMNLNKLEIKQLTEQERSKQIKQLNQDLSKLKDCLSICISDMLEINNSSYNSLMHTYNHINLTIGKILKLFAASFKAWIKECLKNWKLAKLQIDEAL
B6: SPC42 (protein, UniProt P36094 1-363)
chain: MNGSPTPKRYSSKSSRLYDDYYNIPYQYSNPTPMNRDYNDVGSRINADKLVPEEYKRNTEFINKAVQQNKELNFKLREKQNEIFELKKIAETLRSKLEKYVDITKKLEDQNLNLQIKISDLEKKLSDANSTFKEMRFPKVKDPMVDDDPVSENYDQINVPKHRAPDATGNPRTTNKVSNTSDQDSRLKAIERTLSVLTNYVMRSEDGNNDRMSPLPSPLNTILPINNRLNFQEPKRYNPTVKVNPSDDDIMMYESAELKRVEEEIEELKRKILVRKKHDLRKLSLNNQLQELQSMMDGDDNIKLDNVSKHNHATHRHSSQSSRDYSPSSDACLECSNDLYEKNRVKPENNMSETFATPTPNNR
B7: PTC4 (protein, UniProt P38089 1-393)
chain: MGQLLSHPLTEKTIEYNEYKNNQASTGIVPRFYNCVGSMQGYRLTQEDAHLIRNENSVVYVRFFNPFIDKYETLSLNVFAVFDGHGGDDCSKFLSGGRHHRDGNGSSNGNGEPNAGLIKWIAYSFENHHYTSTTNNDSSKFKRSFNTLEGLVSQIFKDAFILQDEELYRHFANSSCGSTAVVACIINEESLYVANCGDSRCILSSKSNGIKTMSFDHKPQHIGELIRINDNGGTVSLGRVGGVLALSRAFSDFQFKRGVTYPHRRTKLTNITQNLTYGTPPQEAQVTVEPDVLMHKIDYSKDEFLVLACDGIWDIYNNKQLIHFIKYHLVSGTKLDTIITKLLDHGIAQANSNTGVGFDNMTAIIVVLNRKGETLQDWFNKMKTRLERERGLV
B8: PSP2 (protein, UniProt P50109 1-593)
chain: MGTNNTSNNNGTTKKMSLEEFLGNDTLGESVWDEEDINLDAISNTTNIDILKQTKAGEHQRDGHQQHPHGGHGPMNRSRFSNAGPFGGGSMGDFANHHHPLQHQQGPPYIVKFSDLPPRFSNFDIEDLFQAKFTKFIKFKLFWEINKNPSISTLKSGSIFDQNFKRDSKVAFVELYTSRDMDKILNYWTTPLKEIYHITTAPAEFEDFKDYSTKVKLLTDPKDDAGKPFITKTQRSKSNPFGSAKPVDTQSKILDIEEKMENLHVEDTTTLRASLIPSSDSMATTATGSKITILKKQTPTEEESHSATPTPKPLSYSEVVERSVVNETSKKGTPLSKLDSPALELQSKPDKSDEFKGGDEQGFEKGGDDKAQLDVSNDKDKGSETDVDKQFTFKNVEREHSMSRTKYNGNHNNNNGNFRGSNRYRGGPNGSSYKGGHNNRGNRGGYRGGSSYNNNNNNTNDNNNNNNNSSSNNNNGSRYHDRQNNEEGLTSDSSLDASGNKKNDFTNSTSNTQQYSIFKPASGFLGQGNNDSIRNNGRGNYNSSGMNGGSRGRGFGRGRGFGRGAYNNRGSRGGRGSSGNYSNYNNRTTDMPL

molecular target: T1, His6-Gis1 (yeast (S. cerevisiae)) (UniProt Q03833); experiment: affinity purification with mass spectrometry; His6-Gis1 pre-bound to a Ni Sepharose 6 Fast Flow column; crude yeast extract (Δgis1 cells grown in air or under hypoxia, Δgis1Δhem1 cells at intermediate or high ALA) loaded, 4 °C, 2 h; eluted complexes separated by SDS-PAGE, bands excised, MS; only the target purified
T1 sequence: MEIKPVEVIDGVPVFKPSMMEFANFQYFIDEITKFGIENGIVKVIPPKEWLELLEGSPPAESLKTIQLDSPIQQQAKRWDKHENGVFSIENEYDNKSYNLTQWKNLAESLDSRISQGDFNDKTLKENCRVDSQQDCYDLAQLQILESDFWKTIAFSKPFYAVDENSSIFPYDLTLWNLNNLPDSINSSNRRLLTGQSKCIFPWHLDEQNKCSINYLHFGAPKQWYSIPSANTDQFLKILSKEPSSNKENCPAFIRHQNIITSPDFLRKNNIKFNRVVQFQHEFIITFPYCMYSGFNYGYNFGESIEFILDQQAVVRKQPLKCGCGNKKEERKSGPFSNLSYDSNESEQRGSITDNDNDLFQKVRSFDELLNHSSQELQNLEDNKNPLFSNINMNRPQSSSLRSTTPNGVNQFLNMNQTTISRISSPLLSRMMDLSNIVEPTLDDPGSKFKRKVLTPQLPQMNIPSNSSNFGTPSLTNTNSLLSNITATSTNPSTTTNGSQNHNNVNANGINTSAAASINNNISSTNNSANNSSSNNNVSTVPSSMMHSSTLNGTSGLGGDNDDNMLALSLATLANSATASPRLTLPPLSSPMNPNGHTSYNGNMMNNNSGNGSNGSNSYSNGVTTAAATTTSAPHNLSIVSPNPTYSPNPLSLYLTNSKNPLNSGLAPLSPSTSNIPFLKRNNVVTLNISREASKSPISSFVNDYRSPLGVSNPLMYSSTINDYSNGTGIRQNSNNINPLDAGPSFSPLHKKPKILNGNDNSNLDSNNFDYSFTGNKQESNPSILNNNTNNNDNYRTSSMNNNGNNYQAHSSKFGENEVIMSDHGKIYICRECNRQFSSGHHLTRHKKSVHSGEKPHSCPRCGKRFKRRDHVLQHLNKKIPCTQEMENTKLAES

binding, binds:
B1
B2
B3
B4
B5
B6
B7
B8
